In paper PMC8978962:
Construct, isoform or probe ends are uncertain for at least one entry. Negatives hold for the conditions tested. At least one verdict was read from the data and is not stated in words by the source.

Test system: CitbHLH2-His
Test: EMSA
Settings: LightShift Chemiluminescent EMSA kit (Thermo), 1 nM biotin probe, 6% native polyacrylamide gel, binding buffer, pH and temperature not stated, recombinant protein, protein details: His (pET-32a fusion), label: 3' biotin

TGTTTAAATATTATTGCTACGTGCCGGCGCC (double strand) [CitALMT promoter E-box mutant probe]
binding result (mutated probe, specificity stated as confirmed): no binding

TTTAAATATTATCAATTGGTGCCGGCGCC (double strand) [CitALMT promoter E-box probe]
binding result (1 nM probe, cold probe competition at 50, 200, 500-fold): binds
